These are yes or no findings as the source states them, for the method shown. Binding seen in cells or lysates may run through a third protein. Binding calls can cover weak binding; strength is not graded here. Where a sequence is shown, tags or fusion partners need not be part of it.
Target: Sirtuin 3 (SIRT3), Flag-tagged (human)
Test: co-IP; exogenous: HEK293T cells transfected with Flag-SIRT3 and HA-SLC25A22; immunoprecipitation with anti-Flag or anti-HA, Western blot; IP buffer 150 mM NaCl, 50 mM Tris pH 7.4, 0.5% deoxycholic acid, 1% NP40, 0.1% SDS; overnight at 4 °C

binding: binds
B1: Solute carrier family 25 member A22 (SLC25A22), HA-tagged (protein, UniProt Q9H936 1-323)
chain: MADKQISLPAKLINGGIAGLIGVTCVFPIDLAKTRLQNQQNGQRVYTSMSDCLIKTVRSEGYFGMYRGAAVNLTLVTPEKAIKLAANDFFRHQLSKDGQKLTLLKEMLAGCGAGTCQVIVTTPMEMLKIQLQDAGRIAAQRKILAAQGQLSAQGGAQPSVEAPAAPRPTATQLTRDLLRSRGIAGLYKGLGATLLRDVPFSVVYFPLFANLNQLGRPASEEKSPFYVSFLAGCVAGSAAAVAVNPCDVVKTRLQSLQRGVNEDTYSGILDCARKILRHEGPSAFLKGAYCRALVIAPLFGIAQVVYFLGIAESLLGLLQDPQA
